Data source: PubChem BioAssay AID652243 (Drosophila RNAi Screening Center, 2013)

Screen: 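Knock-downs that decrease or increase androgen receptor reporter signal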 (primary screen)
System: Drosophila S2R+ cells
Knock-down reagent: long dsRNA against Drosophila genes
Duration: 72 h (48 h, then 24 h hormone)
Treatment: synthetic androgen R1881 at 10 nM for 24 h
Read-out: 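Firefly light from an androgen-responsive reporter and Renilla control light per well, raw and unnormalised, for each of two replicates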
Reading the numbers: firefly reporter light: higher = more light from androgen-responsive reporter; Renilla control light: higher = more constitutive control signal (cell number, transfection)
Active means: 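Across duplicate plates, a knock-down whose log firefly/Renilla ratio shifted a set fold down or up from the GFP/LacZ control mean was a hit; the downward cut appears as both 1.5 and 3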
Calls: active = hit: reporter lowered or raised; inactive = no hit
In all, the deposit lists about 24,000 reagents; this is an unselected part of those with a known target gene and a result. In the full data, 246 (1%) are marked active. 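Plates not normalised; calls are printed but the firefly/Renilla ratio behind them is not deposited; fold cut for lowering reported inconsistently.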 The raw values are shown without normalisation. Reagents against one gene are numbered here. A plus sign joins genes that one reagent is predicted to hit. No sequences are given here. Not given: the amount of reagent.

no.	gene	reagent no.	firefly reporter light, replicate 1	firefly reporter light, replicate 2	Renilla control light, replicate 1	Renilla control light, replicate 2	Call
1	CG1544	1	73013	53092	5.77e5	3.95e5	inactive
2	COX4	1	9.59e5	8.25e5	1.57e6	1.51e6	inactive
3	COX4	2	4.39e5	6.63e5	8.88e5	8.31e5	inactive
4	eIF3d1	1	1.71e5	2.66e5	1.56e6	1.70e6	inactive
5	nompB	1	1.96e5	1.94e5	1.72e6	1.57e6	inactive
6	nompB	2	3.59e5	6.31e5	1.14e6	1.69e6	inactive
7	Shab	1	1.98e5	1.97e5	6.38e5	6.36e5	inactive
8	Shab	2	1.14e5	1.50e5	1.19e6	1.16e6	inactive
9	Shab	3	9.94e5	9.49e5	1.83e6	2.07e6	inactive
10	Shab	4	8.72e5	1.13e6	6.07e5	1.06e6	inactive
11	Cyp310a1	1	9.40e5	7.36e5	1.55e6	1.32e6	inactive
12	Cyp310a1	2	4.15e5	4.16e5	1.39e6	9.80e5	inactive
13	mio	1	9.62e5	6.44e5	2.46e6	1.32e6	inactive
14	mio	2	1.05e6	9.11e5	2.38e6	1.69e6	inactive
15	P5CS	1	72113	95053	7.80e5	8.16e5	inactive
16	P5CS	2	2.35e5	1.55e5	1.93e6	2.05e6	inactive
17	Acp1	1	2.09e5	1.52e5	1.93e6	1.50e6	inactive
18	CG32983	1	8.13e5	8.55e5	5.65e5	5.88e5	inactive
19	h-cup + Rbp	1	2.48e5	1.66e5	2.96e6	2.78e6	inactive
20	CG18268 + CG3014	1	53566	52334	1.31e6	1.20e6	inactive
21	Rpt6R	1	2.46e5	2.47e5	2.09e6	3.18e6	inactive
22	CG30349	1	2.83e5	2.47e5	2.27e6	2.01e6	inactive
23	CG30349	2	1.18e5	2.12e5	1.10e6	1.14e6	inactive
24	CG30349	3	8.43e5	4.08e5	1.46e6	1.30e6	inactive
25	erm	1	7.79e5	1.08e6	2.45e6	2.57e6	inactive
26	AIF	1	8.74e5	6.32e5	3.22e6	1.86e6	inactive
27	CG41520	1	4.57e5	5.21e5	2.67e6	2.91e6	inactive
28	CG41520	2	7.16e5	9.63e5	1.19e6	2.17e6	inactive
29	CG3704	1	2.71e5	3.25e5	6.34e6	4.40e6	inactive
30	CG3704	2	3.07e5	2.80e5	6.22e6	3.56e6	inactive
31	CG3704	3	5.96e5	8.78e5	1.68e6	2.44e6	inactive
32	sick	1	67291	68200	9.41e5	8.69e5	inactive
33	sick	2	72574	90656	8.65e5	1.10e6	inactive
34	sick	3	1.57e5	1.75e5	1.54e6	1.54e6	inactive
35	sick	4	99348	1.23e5	8.05e5	1.21e6	inactive
36	sick	5	1.22e5	1.15e5	1.01e6	1.31e6	inactive
37	sick	6	5.13e5	5.42e5	1.51e6	1.70e6	inactive
38	CG5078	1	2.23e5	2.01e5	1.84e6	1.54e6	inactive

Laid out differently: results already given
| gene | reagent no. | firefly reporter light, replicate 1 | firefly reporter light, replicate 2 | Renilla control light, replicate 1 | Renilla control light, replicate 2 | Call |
| --- | --- | --- | --- | --- | --- | --- |
| mio | 1 | 9.62e5 | 6.44e5 | 2.46e6 | 1.32e6 | inactive |
| mio | 2 | 1.05e6 | 9.11e5 | 2.38e6 | 1.69e6 | inactive |
| P5CS | 1 | 72113 | 95053 | 7.80e5 | 8.16e5 | inactive |
| P5CS | 2 | 2.35e5 | 1.55e5 | 1.93e6 | 2.05e6 | inactive |
| Acp1 | 1 | 2.09e5 | 1.52e5 | 1.93e6 | 1.50e6 | inactive |
| CG32983 | 1 | 8.13e5 | 8.55e5 | 5.65e5 | 5.88e5 | inactive |
| h-cup + Rbp | 1 | 2.48e5 | 1.66e5 | 2.96e6 | 2.78e6 | inactive |
| CG18268 + CG3014 | 1 | 53566 | 52334 | 1.31e6 | 1.20e6 | inactive |
| Rpt6R | 1 | 2.46e5 | 2.47e5 | 2.09e6 | 3.18e6 | inactive |
| CG30349 | 1 | 2.83e5 | 2.47e5 | 2.27e6 | 2.01e6 | inactive |

The list goes on.
no.	gene	reagent no.	firefly reporter light, replicate 1	firefly reporter light, replicate 2	Renilla control light, replicate 1	Renilla control light, replicate 2	Call
39	Rab3-GEF	1	4.29e5	4.23e5	3.06e6	3.03e6	inactive
40	Rab3-GEF	2	4.59e5	5.43e5	4.36e6	4.67e6	inactive
41	Rab3-GEF	3	3.68e5	2.01e5	5.25e5	4.93e5	inactive
42	galla-1	1	84476	1.30e5	2.17e6	2.26e6	inactive
43	CG14715	1	41581	50658	6.61e5	6.50e5	inactive
44	Mal-A4	1	2.68e5	3.32e5	1.50e6	1.38e6	inactive
45	Mal-A4	2	6.20e5	8.63e5	1.06e6	1.14e6	inactive
46	CG3857	1	1.48e5	1.33e5	9.76e5	5.71e5	inactive
47	CG6833	1	4.42e5	4.15e5	1.26e6	1.43e6	inactive
48	CG6833	2	7.81e5	9.91e5	9.30e5	9.87e5	inactive
49	CG8839	1	1.27e6	1.06e6	1.82e6	1.65e6	inactive
50	CG2182	1	50634	43413	4.84e5	4.06e5	inactive
51	CG2182	2	9.19e5	9.45e5	1.92e6	1.59e6	inactive
52	CG13796 + CG31904	1	1.17e6	8.81e5	2.75e6	2.12e6	inactive
53	Mul1	1	79121	1.01e5	1.17e6	1.57e6	inactive
54	Mul1	2	5.59e5	7.10e5	8.58e5	9.14e5	inactive
55	CG32793	1	3.74e5	5.01e5	5.46e6	4.02e6	inactive
56	CG32793	2	1.81e5	2.33e5	1.33e6	1.55e6	inactive
57	CG32793	3	5.22e5	4.16e5	1.23e6	1.28e6	inactive
58	CG9631	1	14341	46263	2.17e5	2.34e5	inactive
